# Measurements reported in PubChem BioAssay AID2685 (National Center for Advancing Translational Sciences (NCATS), 2010).
# This is one part of the list. The main result of the screen is listed elsewhere. These columns were measured beside it and carry no call. The list favours compounds with an active or inconclusive main result. Potencies come from curve fits of mixed quality, noted in brackets.
# Assay: qHTS Assay for Lipid Storage Modulators in Drosophila S3 Cells;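 on cell number change: cells counted by Cell Tracker Red CMTPX staining in the red channel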
# Conditions: BODIPY lipid droplet fluorescence, 18-24 h; for cell number change: measured here: cell count max response, cells fed with added oleic acid
# In short: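 Laser-scanning cytometry quantifies lipid droplet accumulation (500–530 nm total intensity; droplet/cell object ratio) in oleic acid-fed (400 uM added) Drosophila S3 cells treated with a concentration series. 20 uM Triacsin C defined 100% inhibition.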
# [1] = measured here: lipid fluorescence (Fed channel) AC50, cells fed with added oleic acid
# [2] = measured here: cell number channel AC50, cells fed with added oleic acid
SMILES,AC50 [1],cell number change,AC50 [2]
CC1(C)CC(=O)C2=C(C1)N(Cc1ccco1)C(=O)C2(NC(=O)C1CCCCC1)C(F)(F)F (centres undefined),"0.58 µM [rising, full curve]",,
O=C(CN1CCCCC1)Nc1cccc(Oc2ccccc2)c1,"29.1 µM [falling, partial curve]",-96.2%,"14.6 µM [falling, partial curve]"
COc1cc(/C=C/C(=O)O)cc(S(=O)(=O)Nc2ccc3nc(SC)sc3c2)c1OC,,-27.9%,"3.26 µM [falling, full curve, poor fit]"
Cc1nc(SCc2nnc(-c3ccc(Cl)cc3)o2)c2c3c(sc2n1)CCC3,"0.116 µM [rising, full curve, poor fit]",2.61%,
CCN=C(Nc1cccc(F)c1)SC1CC(=O)N(c2ccc(OC)cc2)C1=O (centres undefined),"0.0326 µM [falling, full curve, poor fit]",-4.02%,
COc1cc(NC(=O)CN2CCN(c3ccccc3)CC2)c(C)cc1[N+](=O)[O-],"7.31 µM [falling, single point]",-36.3%,"13 µM [falling, partial curve]"
CC1CCCCN1CCNC(=O)c1cnn2ccccc12 (centres undefined),,-75.7%,"16.4 µM [falling, single point]"
Cc1ccc(C2=[N+]([O-])C3(CCCCC/C3=N\NC(N)=S)N(O)C2(C)C)o1 (centres undefined),"1.64 µM [falling, partial curve]",3.62%,
CC(C)CCn1nc(C(=O)Nc2nc3c(s2)CCCC3)c2ccccc2c1=O,"13 µM [rising, partial curve]",,"1.84 µM [rising, partial curve]"
O=C(Oc1ccc(N(C(=O)c2ccncc2)S(=O)(=O)c2cccs2)cc1)c1ccncc1,"18.4 µM [falling, single point]",-24.2%,
CCc1ccc(OC)c(S(=O)(=O)NCc2cccs2)c1,"10.3 µM [rising, partial curve]",-8.16%,
O=[N+]([O-])c1cccc(/C=C/c2nc(C=Nc3ccccc3)c(O)o2)c1,"6.51 µM [rising, partial curve]",,
C[C@H](NC(=O)OC(C)(C)C)c1nnc(SCC(=O)Nc2ccc(Br)cc2)o1,"3.66 µM [rising, single point]",0.257%,
Cc1ccc(N(CC(=O)Nc2cccc(N(C)S(C)(=O)=O)c2)S(C)(=O)=O)cc1,,44%,"1.84 µM [rising, partial curve, poor fit]"
CC(C)(C)c1ccc(Cn2nnc3c(=O)[nH]c(C4CCCN(C(=O)c5ccco5)C4)nc32)cc1 (centres undefined),"0.112 µM [rising, full curve, poor fit]",-15.8%,
O=C(NCc1ccco1)/C(=C\c1cccnc1)NC(=O)c1ccccc1F,"23.1 µM [falling, partial curve]",-28.4%,
O=C(COc1ncnc2cc([N+](=O)[O-])ccc12)NC1CCCCC1,,20.6%,"0.164 µM [falling, full curve]"
CCn1c(=O)n(CC)c2cc(N3CCCC3)c(NC(=O)c3c(F)cccc3F)cc21,,5.73%,
Cc1ccc(S(=O)(=O)N2CCC(=O)N(C(COCc3ccc(C(F)(F)F)cc3)C(C)C)CC2)cc1 (centres undefined),,30.5%,"20.6 µM [rising, single point]"
C=CCc1c(C)nc(C)nc1N/N=C/c1ccc([N+](=O)[O-])cc1,"0.58 µM [rising, single point]",,

SMILES,AC50 [1],cell number change,AC50 [2]
O=S(=O)(Nc1cc(S(=O)(=O)N2CCOCC2)ccc1N1CCCC1)c1cccs1,"3.26 µM [rising, partial curve, poor fit]",52.1%,
Cc1ccc(C)c(Cn2c(=O)n(CCCC(=O)NCc3ccco3)c(=O)c3sccc32)c1,"1.84 µM [rising, partial curve]",,"1.84 µM [rising, partial curve]"
Nc1nc(Nc2cccc(Cl)c2)nc(NCCO)c1[N+](=O)[O-],"25.9 µM [rising, single point]",26.4%,
COc1ccc(N(CC(=O)N2CCCC(C)C2)S(=O)(=O)c2c(C)nn(C)c2C)cc1 (centres undefined),,14.5%,"0.13 µM [rising, full curve, poor fit]"
COc1ccc(C2=NN(C(=O)CSc3nnc(-c4ccccc4F)o3)C(c3ccco3)C2)cc1 (centres undefined),"3.26 µM [rising, partial curve]",7.4%,
O=C(NC1CC(=O)c2sccc21)c1ccc(Cl)cc1Cl (centres undefined),,-2.15%,"0.092 µM [falling, full curve, poor fit]"
CC1CN(c2ncnc3c2c(-c2ccccc2)cn3-c2ccc(F)cc2)CC(C)O1 (centres undefined),,4.08%,"3.66 µM [rising, partial curve, poor fit]"
O=C(CSc1n[nH]c(-c2ccccc2)n1)c1ccc(O)c(O)c1,"0.13 µM [falling, full curve]",-9.12%,"0.00517 µM [falling, full curve, poor fit]"
O=C(c1ccc2c(c1)OCCO2)C1CCN(S(=O)(=O)c2ccc(F)cc2)CC1,"20.6 µM [falling, partial curve]",2.16%,
c1ccc(-c2cc(-c3nc(-c4cccnc4)no3)c3ccccc3n2)cc1,"0.13 µM [rising, full curve]",16.6%,
O=c1cccc2n1Cc1cc3ccccc3nc1-2,"29.1 µM [rising, single point]",23.2%,
COc1cccc(CN2CCN(CCCc3ccccc3)C(CCO)C2)c1O (centres undefined),,10.1%,
O=C(Nc1nccs1)c1ccc(COc2ccccc2Br)o1,,,"5.8 µM [rising, single point]"
Cc1cc(N2CCOCC2)nc(-c2ccc(Br)cc2)n1,"1.3 µM [rising, full curve]",-7.65%,
CN(C)c1nc(Nn2cnnc2)nc(N(C)C)n1,,29.9%,"2.31 µM [rising, full curve, poor fit]"
O=C(Nc1ccncc1)Nc1ccc(Cl)cc1Cl,"29.1 µM [rising, single point]",-20.8%,
CN(C)CCCn1c2c(c(SCC(=O)Nc3ccc4c(c3)OCCO4)nc1=O)CCC2,,18.9%,
COc1ccc(Nc2nc(C)cc(=O)[nH]2)c(OC)c1,"1.46 µM [rising, full curve, poor fit]",77.3%,"16.4 µM [rising, partial curve]"
COc1ccc(F)cc1S(=O)(=O)N1CCC2(CC1)OCCN2S(=O)(=O)c1cccs1,"10.3 µM [rising, partial curve]",38.4%,"8.2 µM [rising, partial curve]"
COCCn1cnnc1SCC(=O)Nc1cccc(S(=O)(=O)N(C)c2ccccc2)c1,,33.9%,

# One compound at a time, from the list above.
# `CC1CN(c2ncnc3c2c(-c2ccccc2)cn3-c2ccc(F)cc2)CC(C)O1` (centres undefined) reads cell number change: 4.08%; AC50 [2]: 3.66 µM [rising, partial curve, poor fit]
# `COc1ccc(C2=NN(C(=O)CSc3nnc(-c4ccccc4F)o3)C(c3ccco3)C2)cc1` (centres undefined) reads AC50 [1]: 3.26 µM [rising, partial curve]; cell number change: 7.4%
# `COc1cc(/C=C/C(=O)O)cc(S(=O)(=O)Nc2ccc3nc(SC)sc3c2)c1OC` reads cell number change: -27.9%; AC50 [2]: 3.26 µM [falling, full curve, poor fit]
# `CCN=C(Nc1cccc(F)c1)SC1CC(=O)N(c2ccc(OC)cc2)C1=O` (centres undefined) reads AC50 [1]: 0.0326 µM [falling, full curve, poor fit]; cell number change: -4.02%

# Following part:

SMILES,AC50 [1],cell number change,AC50 [2]
CCOc1ccccc1NC(=O)c1ccc2nccnc2c1,"0.92 µM [rising, full curve]",6.21%,
COc1ccc(-c2nnc3n2N=C(C)CS3)cc1OC,"3.26 µM [rising, full curve]",-12.6%,
CCOC(=O)CC1(C)SC(NC(C)=O)=NN1C(C)=O (centres undefined),"20.6 µM [falling, partial curve]",-44.6%,"25.9 µM [falling, partial curve]"
O=C1CCc2cc(S(=O)(=O)N3CCCCC3)cc3c2N1CC3,"29.1 µM [falling, single point]",-5.76%,
O=C(Nc1nc2ccc(SC(F)F)cc2s1)c1ccc2c(c1)S(=O)(=O)c1ccccc1C2=O,"6.51 µM [falling, single point]",9.17%,
COc1ccc(S(=O)(=O)NC2CCCCCC2)c(OC)c1,"0.00517 µM [rising, full curve, poor fit]",4.48%,"1.64 µM [rising, single point]"
COc1ccc(NC(=S)NCc2ccccc2)c(OC)c1,"18.4 µM [falling, single point]",-23.3%,
O=C(CCS(=O)(=O)c1ccccc1)NC1CCCCC1,"0.0326 µM [rising, full curve, poor fit]",35.3%,"29.1 µM [rising, single point]"
CCn1c(SCC(=O)NCCOC)nc2sc3c(c2c1=O)CCCC3,,-24.4%,
Cn1c(Cl)nc2c1c(=O)n(Cc1cccc(Br)c1)c(=O)n2C,,99.1%,"10.3 µM [rising, partial curve]"
O=C(NCCN1CCOCC1)c1ccc(NS(=O)(=O)c2cccc([N+](=O)[O-])c2)cc1,"29.1 µM [rising, single point]",24.8%,
Cc1ccc(Nc2ccc([N+](=O)[O-])cn2)cc1Cl,"20.6 µM [falling, single point]",-8.24%,
CC(C)(C)c1ccc(-n2ncc3c2CCCC3NC(=O)C2=NNC(=O)CC2)cc1 (centres undefined),,-39.1%,"32.6 µM [falling, single point]"
COC(=O)C1=C(C)N(c2ccc(OC)cc2)C(C)=C(C(=O)OC)C1c1ccc(OC)cc1,"10.3 µM [rising, partial curve]",21.3%,
CCCOc1ccccc1OCC(=O)Nc1cccc(S(=O)(=O)NC2=NCCC2)c1,,-94%,"29.1 µM [falling, single point]"
CCCCn1c(N)c(Sc2ccc(C)cc2)c(=O)[nH]c1=O,"0.0058 µM [falling, full curve, poor fit]",,
CCOc1ccccc1NC(=O)CSc1nnnn1C1CCCC1,,-12.8%,
O=[N+]([O-])c1ccccc1N/N=C1\CCc2ccccc21,"7.08 µM [falling, full curve]",-42.6%,"6.31 µM [falling, full curve]"
